US20260015423A1 (STAIDSON BIOPHARMA, published 2026)
These are yes or no findings as the source states them, for the method shown. Some results given as binding are weak or reduced against the parent protein; the word gives no strength.

Protein sequences, listed by entry. Tags and fused reporters are not part of them. Lines headed by an entry give the natural chain unless they say otherwise; changes in a name come on top.
UniProt Q9NZQ7: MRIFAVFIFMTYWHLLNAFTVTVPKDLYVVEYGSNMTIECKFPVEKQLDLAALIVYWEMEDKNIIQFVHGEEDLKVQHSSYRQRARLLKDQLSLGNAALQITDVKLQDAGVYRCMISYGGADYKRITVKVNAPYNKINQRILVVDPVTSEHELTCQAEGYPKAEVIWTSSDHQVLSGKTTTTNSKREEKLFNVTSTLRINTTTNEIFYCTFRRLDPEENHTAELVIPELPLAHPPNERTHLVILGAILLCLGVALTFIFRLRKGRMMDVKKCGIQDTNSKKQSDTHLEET

How the values were obtained:
[1] = target: T1, Europium-conjugated human PD-L1 (human, UniProt Q9NZQ7 19-238, limits assumed, Europium conjugate (site not stated)); test: HTRF blocking assay: Europium-human PD-L1 with Alexa-647 human PD-1 as the blocked ligand, antibody titrated
T1 construct: also called Europium-human PD-L1; PD-L1 (HTRF donor protein)

[2] = target: cynomolgus PD-L1 (Sino biological, 90251-C08H) (cynomolgus) (UniProt G7PSE7); test: BLI (Octet Red)
[3] = target: T1, Europium-conjugated human PD-L1; test: HTRF competition assay: Europium-human PD-L1 with Alexa-647-conjugated Mab 3-16 as competitor, unlabelled Mab 3-16 titrated
[4] = target: T1, Europium-conjugated human PD-L1; test: HTRF competition assay: Europium-human PD-L1 with Alexa-647-conjugated Mab 3-16 as competitor, unlabelled antibody titrated
[5] = target: T1, Europium-conjugated human PD-L1; test: HTRF competitive binding assay on Eu-human PD-L1, competitor Alexa-647-Mab 3-16

| Binder | binding [1] | binding [4] | also measured |
| --- | --- | --- | --- |
| chimeric anti-human PD-L1 antibody Mab 1-01 (antibody, human IgG1, kappa, V domains shown, Mouse variable domains on human IgG1 / kappa constant regions) VH: EVQLQQSGPELVKPGASVKMSCKASGYSFSGYFLNWVKQSHGKSLEWIGRINPSNDDTVYSQKFKDRATLSLDRSSGTVHMELRSLTSEDSAVYYCARFGHASWYFDVWGAGTTVTVSS VL: QIVLTQSPAIMSASPGEKVTMTCSARSSVIYMSWYQQKPGSSPRLLIYDTSHLASGVPVRFSGSGSGTFYSLIISRVEAEDAATYYCQQWSTYPLTFGAGTRLELNR | binds |  |  |
| chimeric anti-human PD-L1 antibody Mab 1-02 (antibody, human IgG1, kappa, V domains shown, Mouse variable domains on human IgG1 / kappa constant regions) VH: EVQLQQSGPELVKPGASVKMSCKASGYSFSGYFLNWVKQSHGKSLEWIGRINPSNDDTVYSQKFKDRATLSLDRSSGTVHMELRSLTSEDSAVYYCARFGHASWYLDVWGAGTTVTVSS VL: QIVLTQSPAIMSASPGEKVTMTCSARSSIIYMSWYQQKTGSSPRLLIYDTSHLASGVPVRFSGSGSGTFFSLIISRMEAEDAATYYCQQWSTYPLTFGAGTRLELKR | binds |  |  |
| chimeric anti-human PD-L1 antibody Mab 3-18 (antibody, human IgG1, kappa, V domains shown, Mouse variable domains on human IgG1 / kappa constant regions) VH: EVHLQESGPSLVKPSQTLSLTCSVTGDSITSGYWNWIRQFPGNKLEYMGYVSYSGSTYYNPSLKSRISITRDTSKNQYYLQLSSVTTEDTATYYCANYYGDNWPFPLDYWGQGTSVIVSS VL: DIVMTQAAPSVPVTPGESVSISCRSNKSLLHSNGNTYLYWFLQRPGQSPQLLIYRMSNLASGVPDRFSGSGSGTAFTLTISRVEAEDVGVYYCMQHLEYPFTFGGGTKLEIER | binds |  |  |
| chimeric anti-human PD-L1 antibody Mab 3-16 (antibody, human IgG1, kappa, V domains shown, Mouse variable domains on human IgG1 / kappa constant regions; also called parent antibody Mab 3-16) VH: DVQLVESGGGLVQPGGSRKLSCAASGFTFGGFGMHWVRQAPEKGLEWVAYITGDSSTIYYADRVRGRFTISRDNPRNILFLQMTSLGSEDTAMYYCVRGPPGTWAYWGQGTLVTVSA VL: DIVLTQSPASLAVSLGQRATFSCRASESVEFYGTTLVQWYQQRPGQPPKLLIYGASNVESGVPARFTGSGSGTDFSLNIHPVEEDDIAMYFCQQIRKVPWTFGGGTKLEIRR | binds |  | binding [2]: binds; binding [3]: binds |
| chimeric anti-human PD-L1 antibody Mab 3-17 (antibody, human IgG1, kappa, V domains shown, Mouse variable domains on human IgG1 / kappa constant regions) VH: EVHLQESGPSLVKPSQTLSLTCSVTGDSITSGYWNWIRQFPGNKLEYMGYVSYSGSTYYNPSLKSRISITRDTSKNQYYLQLSSVTTEDTATYYCANYYGDNWPFPLDYWGQGTSVIVSS VL: DIVMTQSPATLSVTPGDRVSLSCRASQSINGNLHWFQQKSHESPRLLIKYASQSISGIPSRFSGSGSGSDFTLRINSVEPEDVGVYYCQNGHGFPYTFGGGTKLEIKR | binds |  |  |
| Hum-1 (antibody, IgG1, V domains shown) VH: EVQLVESGGGLVQPGGSLRLSCAASGFTFGGFGMNWVRQAPGKGLEWVSYITGDSSTIYYADRVRGRFTISRDNAKNILYLQMNSLGAEDTAVYYCVRGPPGTWAYWGQGTLVTVSS VL: EIVLTQSPATLSLSPGERATLSCRASESVEFYGTTLVQWYQQKPGQAPRLLIYGASNVESGIPARFSGSGSGTDFTLTISSLEPEDFAVYFCQQIRKVPWTFGQGTKVEIK |  | binds |  |
| Hum-2 (antibody, IgG1, V domains shown) VH: EVQLVESGGGLVQPGGSLRLSCAASGFTFGGFGMNWVRQAPGKGLEWVSYITGDSSTIYYADRVRGRFTISRDNAKNSLYLQMNSLRAEDTAVYYCVRGPPGTWAYWGQGTLVTVSS VL: EIVLTQSPATLSLSPGERATLSCRASESVEFYGTTLVQWYQQKPGQAPRLLIYGASNVESGIPARFSGSGSGTDFTLTISSLEPEDFAVYYCQQIRKVPWTFGQGTKVEIK |  | binds |  |
| Hum-3 (antibody, IgG1, V domains shown) VH: EVQLVESGGGLVQPGGSLRLSCAASGFTFGGFGMNWVRQAPGKGLEWVSYITGDSSTIYYADRVRGRFTISRDNAKNSLYLQMNSLRAEDTAVYYCVRGPPGTWAYWGQGTLVTVSS VL: EIVLTQSPATLSLSPGERATLSCRASESVEFYGTTLVQWYQQKPGQPPRLLIYGASNVESGIPARFSGSGSGTDFTLTISSLEPEDFAVYYCQQIRKVPWTFGQGTKVEIK |  | binds |  |
| Hum-4 (antibody, IgG1, V domains shown) VH: EVQLVESGGGLVQPGGSLRLSCAASGFTFGGFGMNWVRQAPGKGLEWVSYITGDSSTIYYADRVRGRFTISRDNAKNSLYLQMNSLRAEDTAVYYCVRGPPGTWAYWGQGTLVTVSS VL: EIVLTQSPATLSLSPGERATLSCRASESVEFYGTTLVQWYQQKPGQAPRLLIYGASNVESGIPARFSGSGSGTDFTLTISSLEPEDFAVYFCQQIRKVPWTFGQGTKVEIK |  | binds |  |
| humanized anti-human PD-L1 antibody Hum-5 (antibody, human IgG1, kappa, V domains shown) VH: EVQLVESGGGLVQPGGSLRLSCAASGFTFGGFGMHWVRQAPGKGLEWVSYITGDSSTIYYADRVRGRFTISRDNAKNSLYLQMNSLRAEDTAVYYCVRGPPGTWAYWGQGTLVTVSS VL: EIVLTQSPATLSLSPGERATLSCRASESVEFYGTTLVQWYQQKPGQAPRLLIYGASNVESGIPARFSGSGSGTDFTLTISSLEPEDFAVYYCQQIRKVPWTFGQGTKVEIKR |  | binds | binding [2]: binds; binding [5]: binds |
| humanized anti-human PD-L1 antibody Hum-6 (antibody, human IgG1, kappa, V domains shown) VH: EVQLVESGGGLVQPGGSLRLSCAASGFTFGGFGMHWVRQAPGKGLEWVSYITGDSSTIYYADRVRGRFTISRDNAKNSLYLQMNSLRAEDTAVYYCVRGPPGTWAYWGQGTLVTVSS VL: EIVLTQSPATLSLSPGERATLSCRASESVEFYGTTLVQWYQQKPGQPPRLLIYGASNVESGIPARFSGSGSGTDFTLTISSLEPEDFAVYYCQQIRKVPWTFGQGTKVEIKR |  | binds | binding [2]: binds; binding [5]: binds |
| humanized anti-human PD-L1 antibody Hum-7 (antibody, human IgG1, kappa, V domains shown) VH: EVQLVESGGGLVQPGGSLRLSCAASGFTFGGFGMHWVRQAPGKGLEWVSYITGDSSTIYYADRVRGRFTISRDNAKNSLYLQMNSLRAEDTAVYYCVRGPPGTWAYWGQGTLVTVSS VL: EIVLTQSPATLSLSPGERATLSCRASESVEFYGTTLVQWYQQKPGQAPRLLIYGASNVESGIPARFSGSGSGTDFTLTISSLEPEDFAVYFCQQIRKVPWTFGQGTKVEIKR |  | binds | binding [2]: binds; binding [5]: binds |
| Hum-8 (antibody, IgG1, V domains shown) VH: EVQLVESGGGLVQPGGSLRLSCAASGFTFGGFGMNWVRQAPGKGLEWVSYITGDSSTIYYADRVRGRFTISRDNAKNILYLQMNSLRAEDTAVYYCVRGPPGTWAYWGQGTLVTVSS VL: EIVLTQSPATLSLSPGERATLSCRASESVEFYGTTLVQWYQQKPGQAPRLLIYGASNVESGIPARFSGSGSGTDFTLTISSLEPEDFAVYYCQQIRKVPWTFGQGTKVEIK |  | binds |  |
| Hum-9 (antibody, IgG1, V domains shown) VH: EVQLVESGGGLVQPGGSLRLSCAASGFTFGGFGMNWVRQAPGKGLEWVSYITGDSSTIYYADRVRGRFTISRDNAKNILYLQMNSLRAEDTAVYYCVRGPPGTWAYWGQGTLVTVSS VL: EIVLTQSPATLSLSPGERATLSCRASESVEFYGTTLVQWYQQKPGQPPRLLIYGASNVESGIPARFSGSGSGTDFTLTISSLEPEDFAVYYCQQIRKVPWTFGQGTKVEIK |  | binds |  |
| Hum-10 (antibody, IgG1, V domains shown) VH: EVQLVESGGGLVQPGGSLRLSCAASGFTFGGFGMNWVRQAPGKGLEWVSYITGDSSTIYYADRVRGRFTISRDNAKNILYLQMNSLRAEDTAVYYCVRGPPGTWAYWGQGTLVTVSS VL: EIVLTQSPATLSLSPGERATLSCRASESVEFYGTTLVQWYQQKPGQAPRLLIYGASNVESGIPARFSGSGSGTDFTLTISSLEPEDFAVYFCQQIRKVPWTFGQGTKVEIK |  | binds |  |
| Hum-11 (antibody, IgG1, V domains shown) VH: EVQLVESGGGLVQPGGSLRLSCAASGFTFGGFGMNWVRQAPGKGLEWVSYITGDSSTIYYADRVRGRFTISRDNAKNILYLQMNSLGAEDTAVYYCVRGPPGTWAYWGQGTLVTVSS VL: EIVLTQSPATLSLSPGERATLSCRASESVEFYGTTLVQWYQQKPGQAPRLLIYGASNVESGIPARFSGSGSGTDFTLTISSLEPEDFAVYYCQQIRKVPWTFGQGTKVEIK |  | binds |  |
| Hum-12 (antibody, IgG1, V domains shown) VH: EVQLVESGGGLVQPGGSLRLSCAASGFTFGGFGMNWVRQAPGKGLEWVSYITGDSSTIYYADRVRGRFTISRDNAKNILYLQMNSLGAEDTAVYYCVRGPPGTWAYWGQGTLVTVSS VL: EIVLTQSPATLSLSPGERATLSCRASESVEFYGTTLVQWYQQKPGQPPRLLIYGASNVESGIPARFSGSGSGTDFTLTISSLEPEDFAVYYCQQIRKVPWTFGQGTKVEIK |  | binds |  |
| chimeric anti-human PD-L1 antibody Mab 2-04 (antibody, human IgG1, kappa, V domains shown, Mouse variable domains on human IgG1 / kappa constant regions) VH: QVQLQQSGAELARPGASVKMSCKASGYTFTDYAMHWIKQRPGQGLEWIGFIIPSGDHTDYNQNFKDRATLTADKSSNTAYMQLTSLTPDDSAVYFCARGHGFHLYVMDYWGQGTSVTVSS VL: DIVMTQSPATLSVTPGDGVSLSCRASQSIADYLHWYQQKSHESPRLLIKYASQSISGIPSRFSGSGSGSDFTLSISSVEPEDVGVYFCQNGHSFPPTFGTGTKLELKR | binds |  |  |
| chimeric anti-human PD-L1 antibody Mab 3-14 (antibody, human IgG1, kappa, V domains shown, Mouse variable domains on human IgG1 / kappa constant regions) VH: QVQLQQSGAELVKPGTSVKLSCKASGYTFSMYYMFWVKQRPGQGLEWIGQINPSNGRTNFNEKFKSKATLTVDKSSTTAYMQLSSLTSEDSAVYYCTREISYDEFAYWGQGTLVTVSA VL: DVVMTQTPLSLPVSLGDQASISCRSSQSLVHSNGNTYLHWYLQKPGQSPKLLIYRVSNRFSGVPDRFSGSGSGTDFTLKISRVEAEDLGIYFCSQSAHLPYTFGGGTKLEIKR | binds |  |  |
